According to US20230399417A1 (Genentech, published 2023):
Results are given in words; binding and its absence hold for the method and conditions named. Some binding calls cover weakened binding; strength is not graded here.

Protein sequences, listed by entry. Tags and fused reporters are not part of them. Lines headed by an entry give the natural chain unless they say otherwise; changes in a name come on top.
UniProt Q14116: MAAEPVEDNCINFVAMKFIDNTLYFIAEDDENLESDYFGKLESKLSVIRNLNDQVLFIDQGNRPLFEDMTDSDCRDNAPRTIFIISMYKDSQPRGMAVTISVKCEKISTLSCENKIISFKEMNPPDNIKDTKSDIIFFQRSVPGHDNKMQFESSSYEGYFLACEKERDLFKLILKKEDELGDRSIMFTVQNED
UniProt P57764: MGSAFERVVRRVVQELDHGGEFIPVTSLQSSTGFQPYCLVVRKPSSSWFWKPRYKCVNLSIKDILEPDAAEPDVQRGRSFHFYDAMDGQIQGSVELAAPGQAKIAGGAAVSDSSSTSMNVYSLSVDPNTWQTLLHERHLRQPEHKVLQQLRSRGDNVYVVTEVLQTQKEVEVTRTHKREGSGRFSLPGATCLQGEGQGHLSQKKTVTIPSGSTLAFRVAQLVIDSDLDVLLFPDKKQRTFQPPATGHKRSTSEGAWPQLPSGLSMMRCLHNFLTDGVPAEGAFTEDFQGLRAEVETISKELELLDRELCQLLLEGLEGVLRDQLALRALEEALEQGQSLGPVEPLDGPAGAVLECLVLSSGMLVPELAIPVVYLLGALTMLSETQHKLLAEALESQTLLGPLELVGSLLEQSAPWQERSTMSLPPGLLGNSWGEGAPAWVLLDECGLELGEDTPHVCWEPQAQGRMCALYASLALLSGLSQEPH
UniProt P01584: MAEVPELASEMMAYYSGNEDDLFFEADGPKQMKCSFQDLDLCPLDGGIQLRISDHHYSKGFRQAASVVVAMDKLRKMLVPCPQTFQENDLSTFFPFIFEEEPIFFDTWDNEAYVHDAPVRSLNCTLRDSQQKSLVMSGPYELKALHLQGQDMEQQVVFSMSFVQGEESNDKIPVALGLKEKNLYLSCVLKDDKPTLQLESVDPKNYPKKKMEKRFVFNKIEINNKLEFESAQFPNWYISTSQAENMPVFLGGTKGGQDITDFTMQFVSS
UniProt Q9D8T2: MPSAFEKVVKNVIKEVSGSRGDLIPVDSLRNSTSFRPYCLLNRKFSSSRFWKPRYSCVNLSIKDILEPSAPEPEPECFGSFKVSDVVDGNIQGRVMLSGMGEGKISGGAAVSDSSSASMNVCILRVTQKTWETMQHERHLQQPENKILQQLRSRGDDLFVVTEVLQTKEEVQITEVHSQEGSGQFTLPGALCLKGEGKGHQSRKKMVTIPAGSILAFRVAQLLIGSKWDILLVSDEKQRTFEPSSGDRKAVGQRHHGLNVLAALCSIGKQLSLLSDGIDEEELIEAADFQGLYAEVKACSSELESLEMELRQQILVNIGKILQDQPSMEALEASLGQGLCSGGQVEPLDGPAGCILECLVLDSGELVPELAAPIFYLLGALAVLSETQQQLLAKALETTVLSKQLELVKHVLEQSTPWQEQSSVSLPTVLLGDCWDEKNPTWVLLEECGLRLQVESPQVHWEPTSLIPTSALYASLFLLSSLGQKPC
UniProt P10749: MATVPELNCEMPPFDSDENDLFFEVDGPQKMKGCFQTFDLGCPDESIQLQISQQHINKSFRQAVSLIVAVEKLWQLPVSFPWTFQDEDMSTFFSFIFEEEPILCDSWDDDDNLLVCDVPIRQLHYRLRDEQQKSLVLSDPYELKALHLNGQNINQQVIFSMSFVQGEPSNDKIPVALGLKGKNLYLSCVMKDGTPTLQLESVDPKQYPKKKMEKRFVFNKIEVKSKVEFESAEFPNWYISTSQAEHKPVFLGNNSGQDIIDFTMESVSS
UniProt P70343: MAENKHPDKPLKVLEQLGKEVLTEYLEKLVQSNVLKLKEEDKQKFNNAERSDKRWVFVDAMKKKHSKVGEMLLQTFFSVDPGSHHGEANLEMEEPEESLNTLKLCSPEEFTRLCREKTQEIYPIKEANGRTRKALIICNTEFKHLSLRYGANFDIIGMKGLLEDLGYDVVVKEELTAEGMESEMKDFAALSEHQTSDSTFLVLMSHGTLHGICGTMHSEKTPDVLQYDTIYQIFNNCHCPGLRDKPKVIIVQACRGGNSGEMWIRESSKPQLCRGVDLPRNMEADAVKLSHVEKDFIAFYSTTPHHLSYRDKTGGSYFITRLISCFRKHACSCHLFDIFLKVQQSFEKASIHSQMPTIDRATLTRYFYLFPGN

Assays:
[1] = biological target: h/mIL18 peptide (cleavage product of IL-18) (human/mouse (h/mIL18)) (UniProt Q14116); assay: ELISA, biotinylated peptide on neutravidin plate, IgG (FIG. 3C)
[2] = biological target: T1, hGsdmd peptide (cleavage product of human GSDMD) (human) (UniProt P57764); assay: as above
T1 sequence (peptide, biotinylated, looked up): HNFLTD

[3] = biological target: hIL1β.A peptide (noncanonical cleavage product of human IL-1β) (human) (UniProt P01584); assay: as above
[4] = biological target: hIL1β.B peptide (canonical cleavage product of human IL-1β) (human) (UniProt P01584); assay: as above
[5] = biological target: T2, mGsdmd peptide (cleavage product of mouse GSDMD) (mouse) (UniProt Q9D8T2); assay: as above
T2 sequence (peptide, biotinylated, looked up): LSLLSD

[6] = biological target: T3, mIL1β.A peptide (noncanonical cleavage product of mouse IL-1β) (mouse) (UniProt P10749); assay: as above
T3 sequence (peptide, biotinylated, looked up): LFFEVD

[7] = biological target: T4, mIL1β.B peptide (canonical cleavage product of mouse IL-1β) (mouse) (UniProt P10749); assay: as above
T4 sequence (peptide, biotinylated, looked up): NLLVCD

[8] = biological target: T5, Casp11 peptide (cleavage product of caspase-11) (mouse) (UniProt P70343); assay: ELISA, biotinylated peptide on neutravidin plate, IgG (FIG. 3D)
T5 sequence (peptide, biotinylated, looked up): RNMEAD

Measured: binding

B1: CJ11 (antibody, V domains shown)
VH: QSVEESGGGLVTPGTPLTLTCTVSGIDLSRYAMSWVRQAPGKGLEWIGIFGSLGGIFYASWAKGRFTISKTSPTTVDLKITSPTTEDTATYFCARMPYTTDRDFWGPGTLVTVSS
VL: DIVMTQTPSSTSAAVGGTVTITCQASQSVANNNYLKWYQQKRGQPPKQLIYSVSTLASGVPSRFKGSGSGTQFTLTISDLECDDAATYYCSGYFNNNIGAFGGGTKLEIKG
binds: [1] | [2] | [3] | [4] | [5] | [6] | [7] | [8]
